Source: PMC10415178

The chains behind the UniProt entries cited, without tags or fusion partners.
UniProt Q04887: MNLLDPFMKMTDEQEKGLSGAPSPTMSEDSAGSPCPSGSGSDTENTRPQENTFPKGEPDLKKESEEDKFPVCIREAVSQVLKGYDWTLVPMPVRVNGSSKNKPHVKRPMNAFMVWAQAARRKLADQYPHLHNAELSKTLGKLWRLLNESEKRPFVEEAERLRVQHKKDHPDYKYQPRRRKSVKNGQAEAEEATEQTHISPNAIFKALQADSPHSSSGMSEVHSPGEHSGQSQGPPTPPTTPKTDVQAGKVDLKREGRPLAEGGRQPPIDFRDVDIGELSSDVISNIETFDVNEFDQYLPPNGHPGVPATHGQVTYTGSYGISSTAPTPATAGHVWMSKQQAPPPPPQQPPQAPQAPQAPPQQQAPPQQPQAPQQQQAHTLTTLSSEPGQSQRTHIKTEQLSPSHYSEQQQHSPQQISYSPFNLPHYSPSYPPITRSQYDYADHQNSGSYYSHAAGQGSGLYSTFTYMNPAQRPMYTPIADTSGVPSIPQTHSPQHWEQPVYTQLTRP
UniProt Q8VI33: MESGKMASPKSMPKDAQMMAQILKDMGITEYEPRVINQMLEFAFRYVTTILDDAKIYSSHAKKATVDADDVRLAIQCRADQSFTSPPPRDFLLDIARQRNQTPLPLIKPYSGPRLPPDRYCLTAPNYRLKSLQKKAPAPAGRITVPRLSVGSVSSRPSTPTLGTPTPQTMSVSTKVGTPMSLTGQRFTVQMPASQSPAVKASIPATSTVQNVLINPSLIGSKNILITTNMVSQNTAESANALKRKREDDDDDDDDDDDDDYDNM
UniProt E9Q4N7: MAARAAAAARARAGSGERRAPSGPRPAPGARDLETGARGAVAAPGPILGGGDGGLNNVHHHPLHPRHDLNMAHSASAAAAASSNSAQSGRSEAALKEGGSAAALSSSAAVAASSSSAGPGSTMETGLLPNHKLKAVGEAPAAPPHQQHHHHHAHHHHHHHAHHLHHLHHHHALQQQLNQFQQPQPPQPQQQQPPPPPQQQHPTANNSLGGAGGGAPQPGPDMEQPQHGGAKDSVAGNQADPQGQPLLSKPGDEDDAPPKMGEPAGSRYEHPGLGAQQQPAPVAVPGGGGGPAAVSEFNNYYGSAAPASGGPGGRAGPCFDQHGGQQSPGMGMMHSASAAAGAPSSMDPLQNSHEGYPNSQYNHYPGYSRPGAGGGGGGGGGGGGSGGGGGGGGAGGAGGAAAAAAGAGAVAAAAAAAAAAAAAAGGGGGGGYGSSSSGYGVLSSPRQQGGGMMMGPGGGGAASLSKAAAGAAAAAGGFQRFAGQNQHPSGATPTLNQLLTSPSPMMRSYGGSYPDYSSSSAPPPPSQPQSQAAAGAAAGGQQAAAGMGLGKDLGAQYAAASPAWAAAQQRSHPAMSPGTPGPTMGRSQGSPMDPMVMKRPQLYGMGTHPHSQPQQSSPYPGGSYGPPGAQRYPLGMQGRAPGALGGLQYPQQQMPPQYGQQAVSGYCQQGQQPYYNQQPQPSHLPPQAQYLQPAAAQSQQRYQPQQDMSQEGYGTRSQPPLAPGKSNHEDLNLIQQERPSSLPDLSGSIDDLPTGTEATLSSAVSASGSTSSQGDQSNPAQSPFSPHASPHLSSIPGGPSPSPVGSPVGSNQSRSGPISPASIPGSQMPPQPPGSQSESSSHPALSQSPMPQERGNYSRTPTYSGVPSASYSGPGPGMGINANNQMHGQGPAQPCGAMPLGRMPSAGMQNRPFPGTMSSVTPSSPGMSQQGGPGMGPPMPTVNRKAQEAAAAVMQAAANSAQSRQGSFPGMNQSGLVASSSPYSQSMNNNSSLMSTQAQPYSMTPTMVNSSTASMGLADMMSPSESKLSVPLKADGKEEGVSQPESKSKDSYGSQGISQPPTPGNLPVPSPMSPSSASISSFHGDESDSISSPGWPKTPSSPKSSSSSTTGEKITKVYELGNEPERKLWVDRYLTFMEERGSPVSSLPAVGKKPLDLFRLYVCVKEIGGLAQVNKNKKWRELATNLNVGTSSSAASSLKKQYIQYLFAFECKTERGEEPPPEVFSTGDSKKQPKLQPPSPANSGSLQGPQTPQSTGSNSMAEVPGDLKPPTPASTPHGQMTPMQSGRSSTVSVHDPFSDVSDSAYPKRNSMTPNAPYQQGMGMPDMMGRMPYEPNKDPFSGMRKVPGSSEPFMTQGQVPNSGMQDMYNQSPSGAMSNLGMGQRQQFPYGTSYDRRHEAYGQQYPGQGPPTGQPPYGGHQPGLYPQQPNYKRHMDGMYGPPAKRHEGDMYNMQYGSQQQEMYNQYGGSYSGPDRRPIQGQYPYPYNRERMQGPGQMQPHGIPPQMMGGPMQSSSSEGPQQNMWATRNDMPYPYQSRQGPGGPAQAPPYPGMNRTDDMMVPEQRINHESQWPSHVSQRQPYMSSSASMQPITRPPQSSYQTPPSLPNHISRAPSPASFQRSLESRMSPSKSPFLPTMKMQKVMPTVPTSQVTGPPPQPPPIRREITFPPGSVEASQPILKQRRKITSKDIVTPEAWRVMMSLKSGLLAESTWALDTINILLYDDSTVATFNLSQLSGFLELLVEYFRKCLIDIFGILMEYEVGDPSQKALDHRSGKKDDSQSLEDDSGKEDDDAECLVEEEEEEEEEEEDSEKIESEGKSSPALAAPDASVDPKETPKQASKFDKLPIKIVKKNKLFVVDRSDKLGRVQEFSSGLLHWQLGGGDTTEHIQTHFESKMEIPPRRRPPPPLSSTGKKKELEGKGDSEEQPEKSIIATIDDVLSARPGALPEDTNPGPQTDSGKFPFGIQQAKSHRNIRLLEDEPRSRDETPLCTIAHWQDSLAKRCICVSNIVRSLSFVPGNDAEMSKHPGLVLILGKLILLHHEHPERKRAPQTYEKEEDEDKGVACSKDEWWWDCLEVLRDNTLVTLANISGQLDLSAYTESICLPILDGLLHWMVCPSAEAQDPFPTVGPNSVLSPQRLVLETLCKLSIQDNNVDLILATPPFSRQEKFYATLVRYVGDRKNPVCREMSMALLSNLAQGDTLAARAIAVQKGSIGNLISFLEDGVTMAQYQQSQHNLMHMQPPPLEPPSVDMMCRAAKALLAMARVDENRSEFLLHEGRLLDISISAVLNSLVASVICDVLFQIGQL
UniProt Q99JR8: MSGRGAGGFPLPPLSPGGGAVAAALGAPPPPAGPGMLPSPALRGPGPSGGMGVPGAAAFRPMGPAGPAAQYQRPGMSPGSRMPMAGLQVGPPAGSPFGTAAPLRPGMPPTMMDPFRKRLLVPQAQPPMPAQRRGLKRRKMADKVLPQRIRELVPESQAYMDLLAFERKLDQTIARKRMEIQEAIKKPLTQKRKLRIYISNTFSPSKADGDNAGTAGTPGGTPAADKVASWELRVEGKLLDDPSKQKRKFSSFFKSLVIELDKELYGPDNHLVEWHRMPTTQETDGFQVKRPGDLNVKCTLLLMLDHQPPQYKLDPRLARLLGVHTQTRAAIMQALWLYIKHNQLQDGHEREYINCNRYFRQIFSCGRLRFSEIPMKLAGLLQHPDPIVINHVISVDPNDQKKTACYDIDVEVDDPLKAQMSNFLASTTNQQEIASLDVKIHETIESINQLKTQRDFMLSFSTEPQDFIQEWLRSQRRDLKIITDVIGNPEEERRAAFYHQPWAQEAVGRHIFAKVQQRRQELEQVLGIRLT
UniProt A2BH40: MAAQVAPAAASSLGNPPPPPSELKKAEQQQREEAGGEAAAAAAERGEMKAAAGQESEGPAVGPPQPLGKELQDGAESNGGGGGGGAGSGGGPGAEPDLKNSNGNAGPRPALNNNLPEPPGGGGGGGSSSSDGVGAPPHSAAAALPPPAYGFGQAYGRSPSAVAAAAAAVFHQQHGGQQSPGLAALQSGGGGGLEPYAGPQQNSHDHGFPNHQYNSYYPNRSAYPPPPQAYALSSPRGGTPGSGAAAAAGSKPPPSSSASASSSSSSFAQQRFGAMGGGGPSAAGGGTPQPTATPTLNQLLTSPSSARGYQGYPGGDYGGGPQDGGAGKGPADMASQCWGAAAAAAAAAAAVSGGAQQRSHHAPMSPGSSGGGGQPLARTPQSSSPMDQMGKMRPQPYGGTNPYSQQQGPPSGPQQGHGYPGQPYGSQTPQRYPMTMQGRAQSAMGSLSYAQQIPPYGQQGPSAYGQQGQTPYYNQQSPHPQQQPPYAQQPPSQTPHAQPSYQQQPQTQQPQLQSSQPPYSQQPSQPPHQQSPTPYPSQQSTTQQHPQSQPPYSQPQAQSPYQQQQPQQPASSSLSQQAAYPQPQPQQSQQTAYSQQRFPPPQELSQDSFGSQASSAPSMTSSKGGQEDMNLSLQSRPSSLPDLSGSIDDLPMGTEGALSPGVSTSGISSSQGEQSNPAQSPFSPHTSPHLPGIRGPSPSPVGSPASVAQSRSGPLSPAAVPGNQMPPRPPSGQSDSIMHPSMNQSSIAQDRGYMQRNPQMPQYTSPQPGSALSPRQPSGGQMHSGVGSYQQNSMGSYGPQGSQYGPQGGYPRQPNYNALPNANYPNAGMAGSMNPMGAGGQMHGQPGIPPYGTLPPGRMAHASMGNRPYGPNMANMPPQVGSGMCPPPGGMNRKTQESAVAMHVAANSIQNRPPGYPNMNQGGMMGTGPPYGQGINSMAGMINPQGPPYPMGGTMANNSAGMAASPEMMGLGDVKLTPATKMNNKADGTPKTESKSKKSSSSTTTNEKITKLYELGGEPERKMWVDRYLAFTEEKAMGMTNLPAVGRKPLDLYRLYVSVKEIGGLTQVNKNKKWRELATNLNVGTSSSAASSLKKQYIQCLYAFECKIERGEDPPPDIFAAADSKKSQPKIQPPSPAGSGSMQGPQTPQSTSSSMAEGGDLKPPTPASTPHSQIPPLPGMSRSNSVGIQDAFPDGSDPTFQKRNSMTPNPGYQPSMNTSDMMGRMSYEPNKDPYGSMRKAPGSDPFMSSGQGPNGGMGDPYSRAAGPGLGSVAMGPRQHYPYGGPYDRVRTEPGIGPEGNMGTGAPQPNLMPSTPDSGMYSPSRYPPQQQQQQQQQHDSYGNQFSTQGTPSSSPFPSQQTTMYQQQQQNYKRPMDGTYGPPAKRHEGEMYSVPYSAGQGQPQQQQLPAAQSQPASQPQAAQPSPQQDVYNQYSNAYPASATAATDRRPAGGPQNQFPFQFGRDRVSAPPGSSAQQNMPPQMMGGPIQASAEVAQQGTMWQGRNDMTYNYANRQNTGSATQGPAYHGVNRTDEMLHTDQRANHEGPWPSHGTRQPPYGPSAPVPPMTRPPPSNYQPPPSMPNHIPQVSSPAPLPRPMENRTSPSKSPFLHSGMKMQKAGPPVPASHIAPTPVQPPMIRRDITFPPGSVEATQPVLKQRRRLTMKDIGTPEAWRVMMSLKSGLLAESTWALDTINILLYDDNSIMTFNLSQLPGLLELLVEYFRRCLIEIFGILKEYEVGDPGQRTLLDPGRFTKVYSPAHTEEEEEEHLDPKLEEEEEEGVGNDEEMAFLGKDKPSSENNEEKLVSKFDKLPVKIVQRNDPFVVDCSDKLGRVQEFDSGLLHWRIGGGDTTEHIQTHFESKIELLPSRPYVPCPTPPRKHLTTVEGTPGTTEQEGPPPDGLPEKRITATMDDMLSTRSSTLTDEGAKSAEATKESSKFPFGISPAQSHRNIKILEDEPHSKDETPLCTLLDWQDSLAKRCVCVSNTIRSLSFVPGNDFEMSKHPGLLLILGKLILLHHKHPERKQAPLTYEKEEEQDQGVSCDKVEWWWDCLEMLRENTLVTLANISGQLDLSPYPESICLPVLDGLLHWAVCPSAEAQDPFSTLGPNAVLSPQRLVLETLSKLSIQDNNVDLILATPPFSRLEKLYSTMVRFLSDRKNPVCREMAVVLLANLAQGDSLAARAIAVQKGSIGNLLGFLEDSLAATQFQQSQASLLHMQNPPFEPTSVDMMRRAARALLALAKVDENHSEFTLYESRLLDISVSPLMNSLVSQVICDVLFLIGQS

Molecular target: MYC-BioID2-SOX9 (UniProt Q04887)
Assay: proximity labelling; BioID2 fused to SOX9 induced with 1 μg/ml DOX in cultured primary Krt14-rtTA EpdSCs; 50 μM biotin for 16 h; biotinylated proteins purified on magnetic beads and analysed by mass spectrometry; hits: found in two of three MYC-BioID2-SOX9 replicates and absent from all MYC-BioID2-GFP-NLS samples

Molecule	binding
TAF9 (from UniProt Q8VI33 1-264)	binds
ARID1b (from UniProt E9Q4N7 1-2306)	binds
SMARCD2 (from UniProt Q99JR8 1-531)	binds

More lines, now with the values ahead:

binding	Molecule
binds	ARID1a (from UniProt A2BH40 1-2283)
binds	MLL1 (from UniProt P55200 1-3966)
binds	JUNB (protein, UniProt P09450 1-344) MCTKMEQPFYHDDSYAAAGYGRSPGSLSLHDYKLLKPTLALNLADPYRGLKGPGARGPGPEGSGAGSYFSGQGSDTGASLKLASTELERLIVPNSNGVITTTPTPPGQYFYPRGGGSGGGTGGGVTEEQEGFADGFVKALDDLHKMNHVTPPNVSLGASGGPQAGPGGVYAGPEPPPVYTNLSSYSPASAPSGGSGTAVGTGSSYPTATISYLPHAPPFAGGHPAQLGLSRGASAFKEEPQTVPEARSRDATPPVSPINMEDQERIKVERKRLRNRLAATKCRKRKLERIARLEDKVKTLKAENAGLSSAAGLLREQVAQLKQKVMTHVSNGCQLLLGVKGHAF
binds	FOSL2 (protein, UniProt P47930 1-326) MYQDYPGNFDTSSRGSSGSPAHAESYSSGGGGQQKFRVDMPGSGSAFIPTINAITTSQDLQWMVQPTVITSMSNPYPRSHPYSPLPGLASVPGHMALPRPGVIKTIGTTVGRRRRDEQLSPEEEEKRRIRRERNKLAAAKCRNRRRELTEKLQAETEELEEEKSGLQKEIAELQKEKEKLEFMLVAHGPVCKISPEERRSPPTSGLQSLRGTGSAVGPVVVKQEPPEEDSPSSSAGMDKTQRSVIKPISIAGGGFYGEEPLHTPIVVTSTPAITPGTSNLVFTYPNVLEQESPSSPSESCSKAHRRSSSSGDQSSDSLNSPTLLAL

These are yes or no findings as the source states them, for the method shown. In cells and extracts the contact can be indirect. These calls come from enrichment with a bait or labelling near it, and not all partners need be listed.
